In all, about 360,000 compounds went through this assay and about 7,500 (2.1%) were called active. Inconclusive means that the source gave no clear call. Such entries were picked first, then a sample of the others. Calls come from the whole dose curve; as a rule, active = well fitted inhibition curve with a large enough effect; inconclusive = small, poorly fitted or top-dose-only effect, or effect the other way; inactive = flat fitted curve, though single readings scatter. Potencies beside an inconclusive call are fits to weak or partial responses and may not hold up.
Experiment: Nrf2 qHTS screen for inhibitors; note: nearly all actives have a fitted effect of over 60% in size
Details: A549 ARE-Fluc reporter, luciferase luminescence, 18-24 h; series mostly up to 46 µM
Summary of the method: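 Two sequential reads on A549 ARE_Fluc cells exposed to compound for 18-24 h: a CellTiter-Fluor fluorescence read for viability, then a luciferase luminescence read for Nrf2/ARE activity.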
Potency is the fitted concentration of half-maximal effect.

Structure (SMILES)	Potency
CC(C)(C)NC(=O)C(=O)NN=C1CCCCCCCCCCC1	inconclusive: 0.82 µM [activator, partial curve, poor fit]
Fc1ccc(/C=N/NC2=Nc3cccc4cccc2c34)cc1	inconclusive: 5.8 µM [activator, single point]
O=C(CCSc1ccccc1Cl)Nc1cccc([N+](=O)[O-])c1	inconclusive: 29.1 µM [falling, single point]
O=C(Nc1nnc(-c2cccnc2)s1)c1cccs1	inconclusive: 25.9 µM [activator, single point]
Fc1ccc2c(c1)-c1nc(-c3ccccc3)cc(-c3ccccc3)c1CO2	inactive
COc1ccc(N(C(=O)c2cccc(C)c2)S(=O)(=O)c2ccc(Cl)cc2)cc1	inconclusive: 29.1 µM [falling, single point]
O=C(NCC(c1ccc(F)cc1)N1CCOCC1)c1cccnc1Sc1ccc(Cl)cc1 (configuration not stated)	inconclusive: 20.6 µM [falling, single point]
Cc1c(NC(=O)Nc2ccccc2C(F)(F)F)sc2nc3n(c(=O)c12)CCC(C)CC3 (configuration not stated)	inactive
CCC1CCCCN1CCCNC(=O)Cn1cnc2sc(C)c(S(=O)(=O)N3CCC(C)CC3)c2c1=O (configuration not stated)	inactive
CN(CC(=O)Nc1ccccc1Br)C(=O)c1cccnc1Nc1cccc(C(F)(F)F)c1	inconclusive: 29.1 µM [falling, single point]
O=C1OC(c2cccs2)=N/C1=C\c1ccc(-c2ccccc2Cl)o1	inactive
O=C(NCc1ccccc1)Nc1cccn(Cc2ccccc2)c1=O	inconclusive: 23.1 µM [falling, single point]
O=C(N[C@H]1CC1c1ccccc1)c1ccc([N+](=O)[O-])cc1 (some centres not stated)	inconclusive: 2.31 µM [activator, full curve, poor fit]
COc1cccc(-c2ccc3ncnc(NCc4cccnc4)c3c2)c1	inconclusive: 20.6 µM [falling, partial curve, poor fit]
CC#CC[N+](C)(C)CCCCCCCCCCCC	inconclusive: 29.1 µM [falling, single point]
Cc1cc2ncc(-c3ccc(Cl)cc3)cn2n1	inconclusive: 2.59 µM [activator, full curve]
O=C(NCCC1CCCCN1S(=O)(=O)c1ccc(F)cc1)C(=O)NCc1ccccn1 (configuration not stated)	inconclusive: 5.8 µM [activator, partial curve, poor fit]
Cc1nnc(SCC(=O)Nc2ccc([N+](=O)[O-])cc2)n1C	inconclusive: 29.1 µM [falling, single point]
COC(=O)c1cccc(-n2[nH]nnc2=S)c1	inconclusive: 25.9 µM [falling, partial curve, poor fit]
Cc1ccc2[nH]c3c(N4CCN(Cc5ccccc5)CC4)ncnc3c2c1	active: 9.2 µM
Cc1ccc(NS(=O)(=O)c2ccc3c(c2)c(=O)n(C)c(=O)n3C)cc1F	inconclusive: 6.51 µM [falling, partial curve]
Cc1cc(C)nc(NS(=O)(=O)c2ccc(NC(=S)NC(=O)CC(C)C)cc2)n1	inconclusive: 16.4 µM [falling, partial curve, poor fit]
Cc1cc(C)c(S(=O)(=O)Nc2ccccc2C(=O)OCC(=O)NCc2ccccc2)c(C)c1	inconclusive: 20.6 µM [falling, partial curve, poor fit]

Structure (SMILES)	Potency
CCOC(=O)c1c(C)[nH]c(C)c1C(=O)COC(=O)/C=C/c1ccc(OC)cc1	inactive
CCOc1ccc(NC(=O)CSc2nnnn2CC(=O)O)cc1	inconclusive: 6.51 µM [activator, partial curve]
COC(=O)C(=O)Nc1cccc2cccnc12	inactive
O=C(NCCOc1ccccc1F)c1cc(F)c(F)cc1Cl	inconclusive: 2.06 µM [activator, partial curve]
COC(=O)c1c(C)[nH]c(C(=O)/C=C/c2ccccc2)c1C	inconclusive: 29.1 µM [falling, single point]
COc1ccc2[nH]c(=O)c(-c3nnn(-c4ccccc4)n3)cc2c1	inactive
O=C(CCCOc1ccccc1)Nc1ccc(Cl)cn1	inconclusive: 16.4 µM [activator, partial curve]
Cc1nc2scc(C)n2c(=O)c1S(=O)(=O)N1CCN(c2cccc(C(F)(F)F)c2)CC1	inconclusive: 29.1 µM [falling, single point]
Cc1ccc(S(=O)(=O)N2CCN(c3nc(-c4cccs4)nc4ncccc34)CC2)cc1	active: 11.6 µM
O=C(c1cc(NC(=O)C23CC4CC(CC(C4)C2)C3)cc(NC(=O)C23CC4CC(CC(C4)C2)C3)c1)N1CCCCC1	inconclusive: 29.1 µM [falling, single point]
O=C(/C=C/c1ccc2c(c1)OCO2)c1ccc(F)cc1	inconclusive: 32.6 µM [activator, single point]
O=S(=O)(Nc1ccc(N2CCOCC2)cc1)c1cc(Cl)ccc1Cl	inconclusive: 20.6 µM [falling, partial curve, poor fit]
COc1ccc(N2CCN(c3oc(COc4ccccc4)nc3C#N)CC2)cc1	inactive
COc1cccc(N2CCN(c3ncnc4onc(-c5ccc(F)cc5)c34)CC2)c1	inconclusive: 0.366 µM [activator, full curve]
COc1cc(-c2nnc(SCC3(c4ccc(Br)cc4)OCCO3)o2)cc(OC)c1OC	inconclusive: 6.51 µM [activator, single point]
Cc1ccc(S(=O)(=O)c2nnn3c2nc(N2CCCC2)c2sccc23)cc1	inactive
Cc1cc(C)c(S(=O)(=O)N2CCN(C(=O)C3COc4ccccc4O3)CC2)c(C)c1 (configuration not stated)	inconclusive: 20.6 µM [falling, partial curve, poor fit]
Cc1ccc(OCCNS(=O)(=O)c2cccs2)cc1	inconclusive: 20.6 µM [activator, partial curve]
O=[N+]([O-])c1ccc(/C=C/c2ccc3ccccc3n2)cc1	inconclusive: 6.51 µM [activator, partial curve, poor fit]
O=C(C1CCCN(S(=O)(=O)c2cccc3nsnc23)C1)N1CCN(c2ccccc2Cl)CC1 (configuration not stated)	inconclusive: 18.4 µM [falling, single point]
COc1ccc2c(c1)c1nc3ccccc3nc1n2CC(=O)OC(C)C	active: 4.61 µM
Cc1noc(C)c1COC(=O)c1cccc(S(=O)(=O)N2c3ccccc3CC2C)c1 (configuration not stated)	inconclusive: 18.4 µM [falling, single point]
Cc1cc(N2C(=O)C(O)=C(C(=O)c3ccc(C)o3)C2c2cccc(Oc3ccccc3)c2)no1 (configuration not stated)	inconclusive: 32.6 µM [falling, single point]

Given field by field: part of the list above.
Cc1cc(C)c(S(=O)(=O)Nc2ccccc2C(=O)OCC(=O)NCc2ccccc2)c(C)c1
  Potency: inconclusive: 20.6 µM [falling, partial curve, poor fit]
CCOC(=O)c1c(C)[nH]c(C)c1C(=O)COC(=O)/C=C/c1ccc(OC)cc1
  Potency: inactive
CCOc1ccc(NC(=O)CSc2nnnn2CC(=O)O)cc1
  Potency: inconclusive: 6.51 µM [activator, partial curve]

Continued:

Structure (SMILES)	Potency
Cc1ccc(C(C)NC(=O)c2cccs2)cc1 (configuration not stated)	inactive
CC(C(=O)Nc1ccc2c(c1)OCCO2)N(C)Cc1c(F)cccc1Cl (configuration not stated)	inconclusive: 16.4 µM [falling, single point]
COc1ccccc1NC(=O)NC(N)=O	inconclusive: 5.8 µM [falling, partial curve, poor fit]
Cc1ccccc1N=C1NN=C(c2ccccc2F)CS1	inconclusive: 2.31 µM [activator, partial curve]
CC1CC(C)CN(S(=O)(=O)c2ccc3c(c2)oc(=O)n3CC(=O)N(C)Cc2ccccc2)C1 (configuration not stated)	inactive
CCCS(=O)(=O)c1c(S(=O)(=O)CCC)c2c3ccccc3ccn2c1C(=O)OC	inconclusive: 8.2 µM [falling, partial curve]
CN(CC(=O)Nc1ccc(Cl)c(C(F)(F)F)c1)C(=O)C1CCN(C(=O)c2ccc(Cl)cc2)CC1	active: 23.1 µM
CS(=O)(=O)N1CCc2cc(C(=O)N3CCN(c4ccccc4)CC3)ccc21	inconclusive: 13 µM [activator, partial curve]
CC(C)Sc1ncnc2c1oc1ccccc12	inconclusive: 29.1 µM [activator, single point]
CC1Cc2cc(S(=O)(=O)NCCc3ccccc3)ccc2N1C(=O)C1CCC1 (configuration not stated)	inconclusive: 29.1 µM [falling, single point]
CCOc1cc(N2CCOCC2)c(OCC)cc1NC(=O)c1ccc(OCc2c(C)noc2C)c(OC)c1	inactive
Cc1noc(C)c1C(=O)Nc1nc2ccccc2s1	inconclusive: 4.61 µM [activator, full curve]
Clc1cccc(Cl)c1/C=N/Nc1c(Cl)cncc1Cl	inconclusive: 6.51 µM [activator, single point]
CCC(C)Cn1cnc2c(Sc3c([N+](=O)[O-])ncn3C)nc(N)nc21 (configuration not stated)	inconclusive: 14.6 µM [activator, partial curve, poor fit]
CCOC(=O)c1c(NC(=O)c2cccs2)sc(C)c1CC	inconclusive: 16.4 µM [falling, single point]
Cc1cc(C)c2[nH]c(=O)c(CN(CC3CCCO3)C(=S)NCc3ccco3)cc2c1 (configuration not stated)	inactive
O=C(NCCN1CCCCC1)c1ccc2c(c1)OCCO2	inconclusive: 25.9 µM [activator, single point]
Cc1ccc(-c2cc(N)n[nH]2)cc1	inconclusive: 29.1 µM [falling, single point]
Cc1ccc(C2C(C#N)=C(N)SC(N)=C2C#N)cc1	inactive
CCC(=O)NC(c1ccc(C)cc1)c1cc([N+](=O)[O-])c2cccnc2c1O (configuration not stated)	active: 23.1 µM
CC(C)c1ccc(/C=N/NC(=O)c2cc(-c3cccc([N+](=O)[O-])c3)n[nH]2)cc1	inconclusive: 20.6 µM [falling, single point]

Source: PubChem BioAssay AID504444 (National Center for Advancing Translational Sciences (NCATS), 2011)
